From PubChem BioAssay AID278 (DTP/NCI, 2004)
The list shows only some results of the screen, not a fair sample: it gathers tests that were run many times, whatever their T/C, doses with no T/C, and many T/C values between a quarter and a half above the control. Further doses and runs are listed elsewhere. T/C gives the treated animals as a percentage of the vehicle group. Schedules are NCI's codes, taken here to give the interval after Q, in days (D) or hours (H), and the number of doses after X. Some T/C values carry the count of animals alive at the toxicity check (mostly the fifth day); without a count, all were alive then. Some entries give survivors of the animals treated and no T/C: the source files T/C as zero there, which appears to mark a toxic dose or a test without result, not a measured value. Counts of survivors are from the toxicity check (mostly the fifth day) where no day follows; animals may have died later. Some doses were run more than once; the values are given in rising order.

Test system: nude mice, A549 intrarenal xenograft, tumor weight change
Assay: NCI In Vivo Anticancer Drug Screen. Data for tumor model A549 Human Adenocarcinoma of Lung with characteristics of Type II Alveolar Epithelial cells (intrarenal inoculation) in NU/NU BALB/C (nude) mice
Conditions: T/C endpoint: mean tumor weight change, schedule: Q04DX003 (ip), higher T/C = larger tumour; for T/C: evaluated on day 12
Method: The antitumor activity of compounds was measured in mice bearing transplantable tumors. Survival or tumor size were measured and the results are expressed as the measurement made in the treated group (T) divided by the measurement made in the vehicle treated control group (C). The tumor model used in this assay is A549 Human Adenocarcinoma of Lung with characteristics of Type II Alveolar Epithelial cells (intrarenal inoculation) in NU/NU BALB/C (nude) mice

[1] = dose: 800.0 mg/kg/injection, vehicle: saline with Tween-80
[2] = dose: 100.0 mg/kg/injection, vehicle: water
[3] = dose: 8.0 mg/kg/injection, vehicle: saline with Tween-80
[4] = dose: 1200.0 mg/kg/injection, vehicle: suspension in saline
[5] = dose: 200.0 mg/kg/injection, vehicle: saline with Tween-80
[6] = dose: 1200.0 mg/kg/injection, vehicle: saline with Tween-80

SMILES: Cc1nc2c(N)cc(Cl)cc2[nH]1
- survivor count (dose: 400.0 mg/kg/injection, vehicle: saline with Tween-80): 0 of 6 on day 12
- survivor count [1]: 0 of 6 on day 12

SMILES: COc1cccc2c1C(=O)c1c(O)c3c(c(O)c1C2=O)C[C@@](O)(C(=O)CO)C[C@@H]3OC1CC(N)C(O)C(C)O1 (some centres undefined)
- survivor count (dose: 16.0 mg/kg/injection, vehicle: saline): 0 of 6 on day 12 and 3 of 6 on day 12

SMILES: COc1cc(C)c(C2NC(=O)c3ccccc3N2)cc1C (centres undefined)
- T/C (dose: 216.0 mg/kg/injection, vehicle: Klucel (hydroxypropylcellulose) (HPC)): 131 % of control

SMILES: Cc1ccc(C2=CSC3=NCCN23)cc1Cl
- T/C (dose: 10.0 mg/kg/injection, vehicle: saline): 149 % of control
- survivor count (dose: 40.0 mg/kg/injection, vehicle: suspension in saline): 1 of 6 on day 12

SMILES: O=C(O)c1cc(C(=O)O)c(C(=O)O)cc1C(=O)O.[NH2-].[NH2-].[NH2-].[NH2-].[Pt+2].[Pt+2]
- T/C (dose: 25.0 mg/kg/injection, vehicle: water): 128 % of control
- survivor count (dose: 50.0 mg/kg/injection, vehicle: water): 3 of 6 on day 12
- T/C [2]: 144 % of control [5 of 6 alive on day 12]

SMILES: Nc1ccc2ccc(N)cc2c1
- T/C (dose: 50.0 mg/kg/injection, vehicle: saline with Tween-80): 135 % of control

SMILES: CC[C@@]1(O)C(=O)OCc2c1cc1n(c2=O)Cc2cc3c(N)cccc3nc2-1
- survivor count (dose: 4.0 mg/kg/injection, vehicle: saline with Tween-80): 1 of 6 on day 12
- survivor count (dose: 6.67 mg/kg/injection, vehicle: saline with Tween-80): 0 of 6 on day 12
- survivor count [3]: 0 of 6 on day 12

SMILES: Cn1c(=S)sc2nc3ccccc3n2c1=S
- survivor count (dose: 240.0 mg/kg/injection, vehicle: saline with Tween-80): 1 of 5 on day 12
- survivor count (dose: 480.0 mg/kg/injection, vehicle: saline with Tween-80): 1 of 6 on day 12

SMILES: COc1cc(C(C)c2cc3c(cc2OCCO)OCO3)cc(OC)c1OC (centres undefined)
- survivor count (dose: 500.0 mg/kg/injection, vehicle: suspension in saline): 3 of 6 on day 12
- survivor count (dose: 1000.0 mg/kg/injection, vehicle: suspension in saline): 0 of 6 on day 12

SMILES: N[C@@H](Cc1c[nH]c2ccccc12)C(=O)Nc1nncs1
- survivor count [4]: 3 of 6 on day 12

SMILES: CC(=O)C[n+]1ccc(C)cc1Sc1ccccc1C
- T/C (dose: 25.0 mg/kg/injection, vehicle: saline with Tween-80): 126 % of control [5 of 6 alive on day 12]
- survivor count [5]: 1 of 6 on day 12

SMILES: O=C(O)[C@H](Cc1ccccc1)N1C(=O)c2ccccc2C1=O
- survivor count (dose: 1200.0 mg/kg/injection, vehicle: DMSO): 0 of 6 on day 12

SMILES: Nc1ccc2ccc(NS(=O)(=O)N3CCCCC3)cc2c1
- survivor count [6]: 2 of 6 on day 12

SMILES: CCOc1cc2c(cc1C(C)c1ccc(OC)cc1)OCO2 (centres undefined)
- survivor count (dose: 300.0 mg/kg/injection, vehicle: distilled water + alcohol): 1 of 6 on day 12
- survivor count (dose: 600.0 mg/kg/injection, vehicle: distilled water + alcohol): 0 of 6 on day 12
- survivor count (dose: 1200.0 mg/kg/injection, vehicle: distilled water + alcohol): 0 of 6 on day 12

SMILES: CC1=CCCC2C1(C)CCC(C)C2(C)Cc1cc(O)ccc1O (centres undefined)
- T/C (dose: 100.0 mg/kg/injection, vehicle: Klucel (hydroxypropylcellulose) (HPC)): 129 % of control

SMILES: CCC1(O)C(=O)OCc2c1cc1n(c2=O)Cc2cc3cc4c(cc3nc2-1)OCO4 (centres undefined)
- survivor count [3]: 0 of 6 on day 12
- survivor count (dose: 16.0 mg/kg/injection, vehicle: saline with Tween-80): 1 of 6 on day 12
- survivor count (dose: 32.0 mg/kg/injection, vehicle: saline with Tween-80): 0 of 6 on day 12

SMILES: CN(C)C(=O)Nc1ccc(Cl)cc1
- survivor count [4]: 0 of 6 on day 12

SMILES: CCOC(=O)c1ccc(NN=NCCF)cc1
- survivor count (dose: 600.0 mg/kg/injection, vehicle: distilled water + Tween-80 + alcohol): 3 of 5 on day 12

SMILES: CCCCOCN(COCCCC)C12CC3CC(CC(C3)C1)C2
- T/C [5]: 142 % of control [5 of 6 alive on day 12]
- T/C [1]: 130 % of control [4 of 6 alive on day 12]

SMILES: Nc1ncnc2c1nc(Cl)n2C1OC2COP(=O)(O)OC2C1O (centres undefined)
- T/C [2]: 148 % of control [5 of 6 alive on day 12]
- survivor count (dose: 200.0 mg/kg/injection, vehicle: water): 3 of 5 on day 12

SMILES: C=C(Cl)C(=NC(C)(C)C)Nc1ccccc1C
- survivor count (dose: 40.0 mg/kg/injection, vehicle: Klucel + Tween-80): 3 of 6 on day 12
- survivor count (dose: 75.0 mg/kg/injection, vehicle: Klucel + Tween-80): 0 of 6 on day 12
- survivor count (dose: 80.0 mg/kg/injection, vehicle: Klucel + Tween-80): 0 of 6 on day 12
- survivor count (dose: 150.0 mg/kg/injection, vehicle: Klucel + Tween-80): 0 of 6 on day 12
- survivor count (dose: 300.0 mg/kg/injection, vehicle: Klucel + Tween-80): 0 of 6 on day 12
- survivor count (dose: 600.0 mg/kg/injection, vehicle: Klucel + Tween-80): 0 of 6 on day 12

SMILES: C=Cc1cc(OC)c2c(c1)c(=O)oc1c2cc(OC)c2c(O)ccc(C3OC(C)C(O)C(C)(O)C3O)c21 (centres undefined)
- survivor count (dose: 75.0 mg/kg/injection, vehicle: DMSO): 3 of 6 on day 12
- survivor count (dose: 150.0 mg/kg/injection, vehicle: DMSO): 3 of 6 on day 12
- survivor count (dose: 600.0 mg/kg/injection, vehicle: DMSO): 1 of 6 on day 12

SMILES: NC(=S)N/N=C/c1ccc(O)cn1
- survivor count [1]: 3 of 6 on day 12

SMILES: CC1C(c2ccccc2)OC(N2CCOCC2)C(C)(C)CN1C (centres undefined)
- survivor count (dose: 600.0 mg/kg/injection, vehicle: saline with Tween-80): 0 of 6 on day 12
- survivor count [6]: 0 of 6 on day 12

SMILES: O=S(=O)(O)c1cc(N=C=S)ccc1/C=C/c1ccc(N=C=S)cc1S(=O)(=O)O
- T/C (dose: 15.0 mg/kg/injection, vehicle: saline): 144 % of control

SMILES: O=C1C=C(N2CC2)C(=O)C(N2CC2)=C1N1CC1
- survivor count (dose: 400.0 micrograms/kg/injection, vehicle: saline + alcohol): 2 of 6 on day 12
- survivor count (dose: 400.0 micrograms/kg/injection, vehicle: saline): 1 of 6 on day 12
- survivor count (dose: 666.66 micrograms/kg/injection, vehicle: saline + alcohol): 0 of 6 on day 12

SMILES: CC(/C=C/C=C/C=C/C=C/C=C/C(O)=C1/C(=O)C(CCC(=O)O)N(C)C1=O)=C\C(C)C(OC1CC(O)C(O)C(C)O1)C(C)C (centres undefined)
- survivor count (dose: 208.0 mg/kg/injection, vehicle: water): 0 of 6 on day 12
- survivor count (dose: 347.0 mg/kg/injection, vehicle: water): 0 of 6 on day 12

SMILES: COc1cc2c(cc1OC)-c1c3c(cc4c1[C@@H](C2)N(C)CC4)OCO3
- survivor count (dose: 300.0 mg/kg/injection, vehicle: distilled water + Tween-80 + alcohol): 0 of 6 on day 12
